Assay: Spectrophotometric fluorescence of the Cy5.5 peptides, used as correction ratio for FACS
Conditions: fluorescence of peptide relative to CTP, controls for differences in fluorescence between peptides
With “AAWHLSSQYSRT (Cy5.5 conjugate; Description of Artificial Sequence: Cardiac Targeting Peptide (CTP-P2A)) [alanine variant of CTP, Cy5.5 conjugated]” the “Correction Ratio” value was 0.95.
For “APAHLSSQYSRT (Cy5.5 conjugate; Description of Artificial Sequence: Cardiac Targeting Peptide (W3A)) [alanine variant of CTP, Cy5.5 conjugated]”, the “Correction Ratio” value was 0.91.
With “APWALSSQYSRT (Cy5.5 conjugate; Description of Artificial Sequence: Cardiac Targeting Peptide (H4A)) [alanine variant of CTP, Cy5.5 conjugated]” the “Correction Ratio” value was 0.94.
With “APWHASSQYSRT (Cy5.5 conjugate; Description of Artificial Sequence: Cardiac Targeting Peptide (L5A)) [alanine variant of CTP, Cy5.5 conjugated]” the “Correction Ratio” value was 0.61.
With “APWHLASQYSRT (Cy5.5 conjugate; Description of Artificial Sequence: Cardiac Targeting Peptide (S6A)) [alanine variant of CTP, Cy5.5 conjugated]” the “Correction Ratio” value was 1.26.
In the case of “APWHLSAQYSRT (Cy5.5 conjugate; Description of Artificial Sequence: Cardiac Targeting Peptide (S7A)) [alanine variant of CTP, Cy5.5 conjugated]”, the “Correction Ratio” value is reported as 0.95.
In the case of “APWHLSSAYSRT (Cy5.5 conjugate; Description of Artificial Sequence: Cardiac Targeting Peptide (Q8A)) [alanine variant of CTP, Cy5.5 conjugated]”, the “Correction Ratio” value is reported as 1.03.
For “APWHLSSQASRT (Cy5.5 conjugate; Description of Artificial Sequence: Cardiac Targeting Peptide (Y9A)) [alanine variant of CTP, Cy5.5 conjugated]”, the “Correction Ratio” value was 0.94.
For “APWHLSSQYART (Cy5.5 conjugate; Description of Artificial Sequence: Cardiac Targeting Peptide (S10A)) [alanine variant of CTP, Cy5.5 conjugated]”, the “Correction Ratio” value was 0.46.
With “APWHLSSQYSAT (Cy5.5 conjugate; Description of Artificial Sequence: Cardiac Targeting Peptide (R11A)) [alanine variant of CTP, Cy5.5 conjugated]” the “Correction Ratio” value was 0.93.
With “APWHLSSQYSRA (Cy5.5 conjugate; Description of Artificial Sequence: Cardiac Targeting Peptide (T12A)) [alanine variant of CTP, Cy5.5 conjugated]” the “Correction Ratio” value was 1.29.
With “APWHLSSQYSRT (Cy5.5; Description of Artificial Sequence: Cardiac Targeting Peptide) [CTP, 12-amino acid cardiac-specific targeting peptide, tested conjugated to Cy5.5]” the “Correction Ratio” value was 1.
In the case of “SQYSRT (Description of Artificial Sequence: Cardiac Targeting Peptide (CTP-B)) [linear six C-terminal amino acid cardiac-specific targeting peptide]”, the “Correction Ratio” value is reported as 0.8318.

Reference: patent publication US12643924B2, “Cardiac-specific targeting-peptide (CTP), compositions, and uses thereof” (University of Pittsburgh—Of the Commonwealth System of …, priority 2018, dated 2026)
